The target of the assay is V5-tagged PHD3. The assay is described as follows: co-IP; HEK293T cells co-transfected with Flag-FOXA1 and V5-PHD1, PHD2 or PHD3; IP with anti-V5, blot with anti-Flag.

No constants are given. Whether binding was seen depends on the method and setting. In cells and extracts the contact can be indirect. Sequences can lack the tags named with a protein.

B1: Flag-tagged FOXA1 (protein, UniProt P55317 1-472)
chain: MLGTVKMEGHETSDWNSYYADTQEAYSSVPVSNMNSGLGSMNSMNTYMTMNTMTTSGNMTPASFNMSYANPGLGAGLSPGAVAGMPGGSAGAMNSMTAAGVTAMGTALSPSGMGAMGAQQAASMNGLGPYAAAMNPCMSPMAYAPSNLGRSRAGGGGDAKTFKRSYPHAKPPYSYISLITMAIQQAPSKMLTLSEIYQWIMDLFPYYRQNQQRWQNSIRHSLSFNDCFVKVARSPDKPGKGSYWTLHPDSGNMFENGCYLRRQKRFKCEKQPGAGGGGGSGSGGSGAKGGPESRKDPSGASNPSADSPLHRGVHGKTGQLEGAPAPGPAASPQTLDHSGATATGGASELKTPASSTAPPISSGPGALASVPASHPAHGLAPHESQLHLKGDPHYSFNHPFSINNLMSSSEQQHKLDFKAYEQALQYSPYGSTLPASLPLGSASVTTRSPIEPSALEPAYYQGVYSRPVLNTS
Turning to B1, the binding entry was “no binding”.

Source of the values: paper PMC12248476.
